# Test results published in doi:10.1101/2022.10.06.511211.
# T1: Syngap1:1-744 (truncated at exon 13, TurboID-HA fusion) (mouse (endogenous in forebrain)) (UniProt F6SEU4)
# T1 sequence: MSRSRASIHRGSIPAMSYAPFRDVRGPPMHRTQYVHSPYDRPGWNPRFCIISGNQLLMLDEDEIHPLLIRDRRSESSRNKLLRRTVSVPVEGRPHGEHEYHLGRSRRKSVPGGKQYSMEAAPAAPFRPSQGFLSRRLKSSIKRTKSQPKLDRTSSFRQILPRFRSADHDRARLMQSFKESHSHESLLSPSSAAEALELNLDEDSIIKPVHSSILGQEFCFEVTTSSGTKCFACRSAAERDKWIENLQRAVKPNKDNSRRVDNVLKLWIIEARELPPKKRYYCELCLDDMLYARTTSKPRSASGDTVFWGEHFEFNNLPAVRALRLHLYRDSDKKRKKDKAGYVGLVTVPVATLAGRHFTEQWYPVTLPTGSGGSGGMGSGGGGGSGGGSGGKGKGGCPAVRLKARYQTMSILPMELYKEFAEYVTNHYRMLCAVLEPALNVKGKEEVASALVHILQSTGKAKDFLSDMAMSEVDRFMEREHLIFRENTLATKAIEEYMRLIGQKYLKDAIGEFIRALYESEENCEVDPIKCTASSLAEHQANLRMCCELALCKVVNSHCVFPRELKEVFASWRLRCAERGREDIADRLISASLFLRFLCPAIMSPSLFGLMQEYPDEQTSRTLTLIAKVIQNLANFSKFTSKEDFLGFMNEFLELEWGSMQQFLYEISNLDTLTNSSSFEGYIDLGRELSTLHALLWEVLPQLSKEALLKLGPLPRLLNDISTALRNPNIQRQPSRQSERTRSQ
# T2: Anks1b (mouse, endogenous, TurboID-HA knock-in) (mouse (endogenous in forebrain)) (UniProt Q8BIZ1)
# T2 sequence: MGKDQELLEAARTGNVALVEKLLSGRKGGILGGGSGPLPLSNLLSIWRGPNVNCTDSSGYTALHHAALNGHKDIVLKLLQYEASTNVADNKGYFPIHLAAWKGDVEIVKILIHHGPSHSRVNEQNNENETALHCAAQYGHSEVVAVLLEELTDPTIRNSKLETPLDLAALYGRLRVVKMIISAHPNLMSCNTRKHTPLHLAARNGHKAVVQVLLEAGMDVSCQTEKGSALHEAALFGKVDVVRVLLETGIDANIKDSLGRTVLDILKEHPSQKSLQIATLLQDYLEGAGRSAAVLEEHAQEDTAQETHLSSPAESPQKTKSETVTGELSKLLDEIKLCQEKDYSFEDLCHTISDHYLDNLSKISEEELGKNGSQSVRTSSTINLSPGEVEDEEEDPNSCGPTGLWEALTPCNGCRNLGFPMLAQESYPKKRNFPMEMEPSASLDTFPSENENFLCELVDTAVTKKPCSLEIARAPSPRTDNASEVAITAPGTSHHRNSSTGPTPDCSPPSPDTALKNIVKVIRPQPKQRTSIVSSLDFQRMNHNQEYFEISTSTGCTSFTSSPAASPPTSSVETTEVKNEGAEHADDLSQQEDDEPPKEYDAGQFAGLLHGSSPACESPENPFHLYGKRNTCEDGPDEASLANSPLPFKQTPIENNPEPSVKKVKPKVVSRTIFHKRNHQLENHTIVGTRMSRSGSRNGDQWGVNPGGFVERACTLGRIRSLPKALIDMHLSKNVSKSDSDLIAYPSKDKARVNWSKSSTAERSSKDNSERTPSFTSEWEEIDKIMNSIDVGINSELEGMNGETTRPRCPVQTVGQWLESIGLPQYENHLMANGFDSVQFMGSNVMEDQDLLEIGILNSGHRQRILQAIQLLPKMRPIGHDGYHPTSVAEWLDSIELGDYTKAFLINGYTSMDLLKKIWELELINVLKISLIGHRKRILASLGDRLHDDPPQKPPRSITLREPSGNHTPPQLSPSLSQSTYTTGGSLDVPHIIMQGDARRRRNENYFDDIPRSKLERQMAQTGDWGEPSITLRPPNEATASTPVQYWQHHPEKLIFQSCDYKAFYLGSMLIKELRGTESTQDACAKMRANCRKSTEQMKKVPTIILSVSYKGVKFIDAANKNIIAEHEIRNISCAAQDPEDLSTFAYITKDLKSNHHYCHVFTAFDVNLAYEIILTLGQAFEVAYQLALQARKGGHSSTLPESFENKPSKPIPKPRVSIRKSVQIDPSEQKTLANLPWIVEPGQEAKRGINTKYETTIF
# Tests used:
# Assay in all cases: proximity labelling
# [1] = biological target: T1, Syngap1:1-744 (truncated at exon 13, TurboID-HA fusion) (mouse (endogenous in forebrain))
# [2] = biological target: Syngap1 (mouse, endogenous, TurboID-HA knock-in) (mouse (endogenous in forebrain)) (UniProt F6SEU4)
# [3] = biological target: T2, Anks1b (mouse, endogenous, TurboID-HA knock-in) (mouse (endogenous in forebrain))
Binder,binding [1],binding [2],binding [3]
"Dlg3 (protein, UniProt P70175 1-849) MHKHQHCCKCPECYEVTRLAALRRLEPPGYGDWQVPDPYGPSGGNGASSGYGGYSSQTLPSQAGATPTPRTKAKLIPTGRDVGPVPPKPVPGKSTPKLNGSGPGWWPECTCTNRDWYEQASPAPLLVNPEALEPSLSVNGSDGMFKYEEIVLERGNSGLGFSIAGGIDNPHVPDDPGIFITKIIPGGAAAMDGRLGVNDCVLRVNEVDVSEVVHSRAVEALKEAGPVVRLVVRRRQPPPETIMEVNLLKGPKGLGFSIAGGIGNQHIPGDNSIYITKIIEGGAAQKDGRLQIGDRLLAVNNTNLQDVRHEEAVASLKNTSDMVYLKVAKPGSIHLNDMYAPPDYASTFTALADNHISHNSSLGYLGAVESKVTYPAPPQVPPTRYSPIPRHMLAEEDFTREPRKIILHKGSTGLGFNIVGGEDGEGIFVSFILAGGPADLSGELRRGDRILSVNGVNLRNATHEQAAAALKRAGQSVTIVAQYRPEEYSRFESKIHDLREQMMNSSMSSGSGSLRTSEKRSLYVRALFDYDRTRDSCLPSQGLSFSYGDILHVINASDDEWWQARLVTPHGESEQIGVIPSKKRVEKKERARLKTVKFHARTGMIESNRDFPGLSDDYYGAKNLKGVTSNTSDSESSSKGQEDAILSYEPVTRQEIHYARPVIILGPMKDRVNDDLISEFPHKFGSCVPHTTRPRRDNEVDGQDYHFVVSREQMEKDIQDNKFIEAGQFNDNLYGTSIQSVRAVAERGKHCILDVSGNAIKRLQQAQLYPIAIFIKPKSIEALMEMNRRQTYEQANKIFDKAMKLEQEFGEYFTAIVQGDSLEEIYNKIKQIIEDQSGHYIWVPSPEKL",binds,binds,
"Prickle1 (protein, UniProt Q3U5C7 1-832) MPLEMEPKMSKLVFGCQRSSTSDDDSGCALEEYAWVPPGLRPEQIQLYFACLPEEKVPYVNSPGEKHRIKQLLYQLPPHDNEVRYCQSLSEEEKKELQVFSAQRKKEALGRGTIKLLSRAVMHAVCEQCGLQMNGGEVAVFASRAGPGVCWHPSCFVCFTCNELLVDLIYFYQDGKIHCGRHHAELLKPRCSACDEIIFADECTEAEGRHWHMKHFCCLECETVLGGQRYIMKDGRPFCCGCFESLYAEYCETCGEHIGVDHAQMTYDGQHWHATEACFSCAQCKASLLGCPFLPKQGQIYCSKTCSLGEDIHASDSSDSAFQSARSRDSRRSVRMGRSSRSADQCRQSLLLSPALNYKFPGLSGNADDTLSRKLDDVSLASRQGAGFANEEFWKARVEQEASEDPEEWAEHEDYMTQLLLKFGDKNLFQQQSSEVDPRASEHWIPDNMVTNKPEVKPNHQGLASKKYQSDMYWAQSQDGLGDSAYGSHPGPASSRRLQELDLDHGAAGYTHDQSQWYEDSLECLSDLKPEQSIRDSMDSLALSNITGASVDGESKPRPSLYSLQNFEEIEAEDCEKMSNMGTLNSSMLHRSAESLQSLNSGLCPEKILPEEKPAHLPVLRRSKSQSRPQQVKFSDDVIDNGSYDIEIRQPPMSERTRRRAYHFEERGSRPHHHRHRRSRKSRSDNALNLVTERKYSAKDRLRLYTPDNYEKFIQNKSARELQAYMQNANLYSQYAHATSDYALQNPGMNRFLGLCGEDDDSWCSSSTSSSDSEEEGYFLGQPIPQPRPQRFTYYTDDLSSPASALPTPQFTQRTTKSKKKKGHKGKNCIIS",binds,binds,
"Cdkl5 (enzyme, UniProt Q3UTQ8 1-938) MKIPNIGNVMNKFEILGVVGEGAYGVVLKCRHKETHEIVAIKKFKDSEENEEVKETTLRELKMLRTLKQENIVELKEAFRRRGKLYLVFEYVEKNMLELLEEMPNGVPPEKVKSYIYQLIKAIHWCHKNDIVHRDIKPENLLISHNDVLKLCDFGFARNLSEGNNANYTEYVATRWYRSPELLLGAPYGKSVDMWSVGCILGELSDGQPLFPGESEIDQLFTIQKVLGPLPSEQMKLFYSNPRFHGLRFPAVNHPQSLERRYLGILNSVLLDLMKNLLKLDPADRYLTEQCLNHPTFQTQRLLDRSPSRSTKRKPYHVESSTLSNRNQSTKGAALQTHHRSNSKDIQNLSVGLPRAEEGLPANESFLNGNLAGATLSPMHTKTYQASTQPGSSSKDLTNNNIPHLLSPKEAKSKTEFDFNIDTKPSEGPGTKYLKSSTRSQQNRHSFMESSQSKAGTLQPSEKQSRHSYIDTIPQSSRSPSYRTKAKSHGALSDSKSVSNLSEARAQITETNTSRYFPSSCLDLNSPTSPTPTRHTDTRTLLSPSGRNNRNEGTLDSRRTTTRHSKTMEELKLPEHMDSSHSHSLSAPHESFSYGLGYTSPFSSQQRPHRHSMYVTRDKVRAKGLDGSLSIGQGMAARANSLQLLSPQPGEQLPPEMTVARPSVKESSREGASSFHTRQKSEGGVYHDPHSDDGTAPKENRHLYNDPVPRRVGSFYRVPSPRPDNSFHENNVSTRVSSLPSDSSSGTNHSKRQPGFDPWKSPENISHADQLKEKEKQGFFRSMKKKKKKTQTVPNTDGPDLLTLQKAIHSSSTASSRPKEWRPEKLSDLQTQSQPLKSLRKLLHLSSSTNHPASSDPRFQPLTAQQAKNSFSEIRIHPLSQATGGSSNIRQEPTPKGRPALQLPGSSLLRYNGWKHSRSRSSQPDEVIFLASHEKWKQ",,binds,binds
"Anks1b (mouse, endogenous, TurboID-HA knock-in) (protein, UniProt Q8BIZ1 1-1259) MGKDQELLEAARTGNVALVEKLLSGRKGGILGGGSGPLPLSNLLSIWRGPNVNCTDSSGYTALHHAALNGHKDIVLKLLQYEASTNVADNKGYFPIHLAAWKGDVEIVKILIHHGPSHSRVNEQNNENETALHCAAQYGHSEVVAVLLEELTDPTIRNSKLETPLDLAALYGRLRVVKMIISAHPNLMSCNTRKHTPLHLAARNGHKAVVQVLLEAGMDVSCQTEKGSALHEAALFGKVDVVRVLLETGIDANIKDSLGRTVLDILKEHPSQKSLQIATLLQDYLEGAGRSAAVLEEHAQEDTAQETHLSSPAESPQKTKSETVTGELSKLLDEIKLCQEKDYSFEDLCHTISDHYLDNLSKISEEELGKNGSQSVRTSSTINLSPGEVEDEEEDPNSCGPTGLWEALTPCNGCRNLGFPMLAQESYPKKRNFPMEMEPSASLDTFPSENENFLCELVDTAVTKKPCSLEIARAPSPRTDNASEVAITAPGTSHHRNSSTGPTPDCSPPSPDTALKNIVKVIRPQPKQRTSIVSSLDFQRMNHNQEYFEISTSTGCTSFTSSPAASPPTSSVETTEVKNEGAEHADDLSQQEDDEPPKEYDAGQFAGLLHGSSPACESPENPFHLYGKRNTCEDGPDEASLANSPLPFKQTPIENNPEPSVKKVKPKVVSRTIFHKRNHQLENHTIVGTRMSRSGSRNGDQWGVNPGGFVERACTLGRIRSLPKALIDMHLSKNVSKSDSDLIAYPSKDKARVNWSKSSTAERSSKDNSERTPSFTSEWEEIDKIMNSIDVGINSELEGMNGETTRPRCPVQTVGQWLESIGLPQYENHLMANGFDSVQFMGSNVMEDQDLLEIGILNSGHRQRILQAIQLLPKMRPIGHDGYHPTSVAEWLDSIELGDYTKAFLINGYTSMDLLKKIWELELINVLKISLIGHRKRILASLGDRLHDDPPQKPPRSITLREPSGNHTPPQLSPSLSQSTYTTGGSLDVPHIIMQGDARRRRNENYFDDIPRSKLERQMAQTGDWGEPSITLRPPNEATASTPVQYWQHHPEKLIFQSCDYKAFYLGSMLIKELRGTESTQDACAKMRANCRKSTEQMKKVPTIILSVSYKGVKFIDAANKNIIAEHEIRNISCAAQDPEDLSTFAYITKDLKSNHHYCHVFTAFDVNLAYEIILTLGQAFEVAYQLALQARKGGHSSTLPESFENKPSKPIPKPRVSIRKSVQIDPSEQKTLANLPWIVEPGQEAKRGINTKYETTIF",no binding,binds,

# These are yes or no findings as the source states them, for the method shown. In cells and extracts the contact can be indirect. These calls come from enrichment with a bait or labelling near it, and not all partners need be listed. For some assays here: No binding means not detected with the bait. Sequences can lack the tags named with a protein.
